The values below come from paper PMC5309860 (2017).

The chains behind the UniProt entries cited, without tags or fusion partners. Where a name states a change or a piece, a line headed by the entry shows the natural chain unless it says otherwise.
UniProt P49407: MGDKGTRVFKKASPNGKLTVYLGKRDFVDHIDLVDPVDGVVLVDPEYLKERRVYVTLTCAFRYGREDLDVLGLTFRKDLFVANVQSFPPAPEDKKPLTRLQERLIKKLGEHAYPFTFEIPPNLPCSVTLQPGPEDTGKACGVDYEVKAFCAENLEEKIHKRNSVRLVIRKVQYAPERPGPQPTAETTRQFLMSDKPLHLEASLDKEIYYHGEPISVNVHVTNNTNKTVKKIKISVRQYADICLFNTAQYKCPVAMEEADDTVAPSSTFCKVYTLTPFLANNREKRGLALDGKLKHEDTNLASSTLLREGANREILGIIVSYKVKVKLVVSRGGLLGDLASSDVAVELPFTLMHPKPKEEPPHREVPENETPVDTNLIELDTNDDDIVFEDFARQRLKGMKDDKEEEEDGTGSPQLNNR
UniProt P25095: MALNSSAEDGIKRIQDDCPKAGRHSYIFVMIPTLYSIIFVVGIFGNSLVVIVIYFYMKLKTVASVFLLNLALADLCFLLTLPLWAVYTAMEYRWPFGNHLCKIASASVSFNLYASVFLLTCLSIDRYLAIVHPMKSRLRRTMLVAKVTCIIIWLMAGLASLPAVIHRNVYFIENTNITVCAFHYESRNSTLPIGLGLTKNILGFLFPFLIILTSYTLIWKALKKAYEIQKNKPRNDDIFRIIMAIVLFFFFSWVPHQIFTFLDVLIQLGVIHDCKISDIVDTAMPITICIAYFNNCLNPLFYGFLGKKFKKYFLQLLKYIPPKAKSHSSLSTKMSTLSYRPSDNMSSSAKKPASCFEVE
UniProt P32121: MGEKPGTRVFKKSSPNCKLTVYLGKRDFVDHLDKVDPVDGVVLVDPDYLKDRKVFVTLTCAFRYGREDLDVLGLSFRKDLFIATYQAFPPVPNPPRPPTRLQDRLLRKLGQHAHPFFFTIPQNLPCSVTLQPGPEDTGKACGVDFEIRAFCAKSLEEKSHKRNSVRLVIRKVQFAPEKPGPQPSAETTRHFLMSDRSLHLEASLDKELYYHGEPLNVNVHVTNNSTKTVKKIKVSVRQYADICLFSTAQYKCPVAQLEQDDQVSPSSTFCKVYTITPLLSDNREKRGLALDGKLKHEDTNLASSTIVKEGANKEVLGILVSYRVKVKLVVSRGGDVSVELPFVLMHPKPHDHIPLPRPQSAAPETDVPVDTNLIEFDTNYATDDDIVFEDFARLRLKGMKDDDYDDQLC

No constants are given. Whether binding was seen depends on the method and setting. For some of these results: In cells and extracts the contact can be indirect. Some entries that bind do so weakly or less than the wild type. For some of these results: Where a sequence is shown, tags or fusion partners need not be part of it.

Assay [1] addresses T1, TRPC3-GFP (wild type) (UniProt Q13507).
T1 sequence: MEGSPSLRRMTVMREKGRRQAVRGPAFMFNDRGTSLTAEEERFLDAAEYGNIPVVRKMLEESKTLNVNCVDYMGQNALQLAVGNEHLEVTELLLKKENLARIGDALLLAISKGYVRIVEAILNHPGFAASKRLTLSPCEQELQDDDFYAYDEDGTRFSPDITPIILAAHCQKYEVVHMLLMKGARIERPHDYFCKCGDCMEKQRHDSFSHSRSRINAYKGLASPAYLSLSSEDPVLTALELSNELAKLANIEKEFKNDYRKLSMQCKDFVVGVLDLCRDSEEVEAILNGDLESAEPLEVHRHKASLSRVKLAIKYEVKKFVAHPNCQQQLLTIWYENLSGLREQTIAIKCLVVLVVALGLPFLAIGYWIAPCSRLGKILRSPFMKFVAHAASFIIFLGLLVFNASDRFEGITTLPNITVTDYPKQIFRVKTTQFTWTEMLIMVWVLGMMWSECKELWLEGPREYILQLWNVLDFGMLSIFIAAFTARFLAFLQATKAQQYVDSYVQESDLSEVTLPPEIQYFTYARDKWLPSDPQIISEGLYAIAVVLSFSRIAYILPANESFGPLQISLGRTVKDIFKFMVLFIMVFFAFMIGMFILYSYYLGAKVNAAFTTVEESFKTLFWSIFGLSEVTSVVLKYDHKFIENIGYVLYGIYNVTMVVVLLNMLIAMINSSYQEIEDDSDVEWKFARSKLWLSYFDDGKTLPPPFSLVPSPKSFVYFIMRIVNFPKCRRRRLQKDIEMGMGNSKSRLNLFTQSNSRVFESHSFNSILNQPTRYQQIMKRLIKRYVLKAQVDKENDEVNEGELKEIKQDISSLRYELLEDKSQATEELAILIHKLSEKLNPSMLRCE
Description: co-IP; HEK293 cells co-transfected with Flag-AT1R-cherry, TRPC3-GFP (WT/truncations) and HA-β-arrestin-1 (WT/truncations/mutants); starved 12 h, stimulated 1 min with AngII (100 nM), TRV120055 (30 nM) or TRV120027 (100 nM); lysates precipitated with antibody-conjugated beads overnight at 4 °C, western ….

A further assay deals with T2, TRPC3-YFP (UniProt Q13507).
T2 sequence: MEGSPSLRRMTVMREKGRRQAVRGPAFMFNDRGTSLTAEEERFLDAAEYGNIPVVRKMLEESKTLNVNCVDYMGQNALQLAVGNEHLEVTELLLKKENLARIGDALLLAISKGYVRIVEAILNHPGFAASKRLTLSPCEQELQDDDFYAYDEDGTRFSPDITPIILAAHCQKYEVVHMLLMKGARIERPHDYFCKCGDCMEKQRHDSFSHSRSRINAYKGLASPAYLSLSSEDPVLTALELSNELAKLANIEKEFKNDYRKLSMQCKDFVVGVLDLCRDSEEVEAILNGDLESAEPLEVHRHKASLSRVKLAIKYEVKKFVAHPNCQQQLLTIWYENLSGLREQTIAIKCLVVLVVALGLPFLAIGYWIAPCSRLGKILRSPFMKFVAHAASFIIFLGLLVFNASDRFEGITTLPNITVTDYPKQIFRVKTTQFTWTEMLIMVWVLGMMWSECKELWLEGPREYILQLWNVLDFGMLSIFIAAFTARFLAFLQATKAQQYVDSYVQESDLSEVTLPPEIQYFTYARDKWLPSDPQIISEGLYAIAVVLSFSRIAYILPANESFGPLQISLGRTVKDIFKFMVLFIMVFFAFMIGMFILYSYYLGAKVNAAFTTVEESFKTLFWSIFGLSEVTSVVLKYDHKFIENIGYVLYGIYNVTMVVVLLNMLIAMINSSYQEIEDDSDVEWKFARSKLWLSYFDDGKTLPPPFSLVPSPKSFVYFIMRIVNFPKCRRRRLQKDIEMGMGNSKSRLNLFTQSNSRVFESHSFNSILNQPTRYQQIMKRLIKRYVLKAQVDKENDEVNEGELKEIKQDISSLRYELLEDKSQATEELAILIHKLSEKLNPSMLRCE
Description: FRET or BRET; intermolecular BRET in HEK293 cells with Flag-AT1R, Luc-β-arrestin-1 or Luc-β-arrestin-2 and TRPC3-YFP, TRPV1-YFP or TRPC6-YFP; AngII (100 nM) or TRV120027 (100 nM) 1 min at 37 °C; coelenterazine h 5 μM. (In general: BRET reads energy transfer from a luciferase to a nearby fluorophore.)

The next assay concerns the target T3, GST-PLCγ-SH3 (human) (UniProt P19174).
T3 sequence: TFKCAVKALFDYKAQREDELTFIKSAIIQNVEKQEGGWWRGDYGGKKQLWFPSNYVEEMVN
Description: pull-down; purified β-arrestin-1 WT or poly-proline mutants pre-mixed with equimolar GRK6-phospho-β2AR peptide (or not), then GST-PLCγ-SH3 (10 μM each in the methods, 5 μM in the legend); 20 mM Tris-HCl pH 8.0, 150 mM NaCl, 2 mM EDTA, 1 mM DTT; GST-agarose, western blot; both purified. For orientation: In western blotting, separated proteins are transferred to a membrane and probed.

Assay [2] deals with HA-β-arrestin-1 (wild type) (UniProt P49407). Description: co-IP; HEK293 cells co-transfected with Flag-AT1R-cherry, TRPC3-GFP (WT/truncations) and HA-β-arrestin-1 (WT/truncations/mutants); starved 12 h, stimulated 1 min with AngII (100 nM), TRV120055 (30 nM) or TRV120027 (100 nM); lysates precipitated with antibody-conjugated beads overnight at 4 °C, western ….
Assay [3] deals with Flag-AT1R-cherry (UniProt P25095). Description: co-IP; sequential: HEK293 cells with Flag-AT1R-cherry, HA-β-arrestin-1 and TRPC3-GFP, TRV120027 (100 nM) or vehicle 1 min; plasma membrane fractions; anti-Flag M2 agarose, elution with 3*Flag peptide, then anti-HA or anti-GFP beads; western blot.
Assay [4] addresses HA-β-arrestin-1 (wild type) (UniProt P49407). The description is as above.
The target of assay [5] is Flag-AT1R-cherry (UniProt P25095). Description: co-IP; HEK293 cells co-transfected with Flag-AT1R-cherry, TRPC3-GFP (WT/truncations) and HA-β-arrestin-1 (WT/truncations/mutants); starved 12 h, stimulated 1 min with AngII (100 nM), TRV120055 (30 nM) or TRV120027 (100 nM); lysates precipitated with antibody-conjugated beads overnight at 4 °C, western ….
Assay [6] deals with T1, TRPC3-GFP (wild type). Description: co-IP; sequential: HEK293 cells with Flag-AT1R-cherry, HA-β-arrestin-1 and TRPC3-GFP, TRV120027 (100 nM) or vehicle 1 min; plasma membrane fractions; anti-Flag M2 agarose, elution with 3*Flag peptide, then anti-HA or anti-GFP beads; western blot.
A further assay deals with HA-β-arrestin-1 P121A (UniProt P49407). Description: co-IP; HEK293 cells co-transfected with Flag-AT1R-cherry, TRPC3-GFP (WT/truncations) and HA-β-arrestin-1 (WT/truncations/mutants); starved 12 h, stimulated 1 min with AngII (100 nM), TRV120055 (30 nM) or TRV120027 (100 nM); lysates precipitated with antibody-conjugated beads overnight at 4 °C, western ….
For a further assay, the target named is HA-β-arrestin-1 P180A (UniProt P49407). The assay is described as above.

On to “HA-β-arrestin-1 1–367 (from UniProt P49407 1-367) (domain or fragment)”, for which, in the assay with TRPC3-GFP (wild type) [1], the binding result is recorded as “binds”.

“Luc-β-arrestin-1 (from UniProt P49407 1-418)”: the binding entry with TRPC3-YFP was “binds”.

“HA-βarr2N-βarr1C (from UniProt P32121 1-321; P49407 320-418)”: the binding entry in the assay with TRPC3-GFP (wild type) [1] is given as “binds”.

For the molecule “His-β-arrestin-1-WT (from UniProt P49407 1-418)”, in the assay with GST-PLCγ-SH3 (human), the binding entry is given as “binds”.

Take “Flag-AT1R-cherry (from UniProt P25095 1-359) (receptor)”: the binding entry (in assay [2]; in the assay with TRPC3-GFP (wild type) [1]) was “binds” each time.

B1: TRPC3-GFP (wild type) (protein, UniProt Q13507-3 1-848)
chain: MEGSPSLRRMTVMREKGRRQAVRGPAFMFNDRGTSLTAEEERFLDAAEYGNIPVVRKMLEESKTLNVNCVDYMGQNALQLAVGNEHLEVTELLLKKENLARIGDALLLAISKGYVRIVEAILNHPGFAASKRLTLSPCEQELQDDDFYAYDEDGTRFSPDITPIILAAHCQKYEVVHMLLMKGARIERPHDYFCKCGDCMEKQRHDSFSHSRSRINAYKGLASPAYLSLSSEDPVLTALELSNELAKLANIEKEFKNDYRKLSMQCKDFVVGVLDLCRDSEEVEAILNGDLESAEPLEVHRHKASLSRVKLAIKYEVKKFVAHPNCQQQLLTIWYENLSGLREQTIAIKCLVVLVVALGLPFLAIGYWIAPCSRLGKILRSPFMKFVAHAASFIIFLGLLVFNASDRFEGITTLPNITVTDYPKQIFRVKTTQFTWTEMLIMVWVLGMMWSECKELWLEGPREYILQLWNVLDFGMLSIFIAAFTARFLAFLQATKAQQYVDSYVQESDLSEVTLPPEIQYFTYARDKWLPSDPQIISEGLYAIAVVLSFSRIAYILPANESFGPLQISLGRTVKDIFKFMVLFIMVFFAFMIGMFILYSYYLGAKVNAAFTTVEESFKTLFWSIFGLSEVTSVVLKYDHKFIENIGYVLYGIYNVTMVVVLLNMLIAMINSSYQEIEDDSDVEWKFARSKLWLSYFDDGKTLPPPFSLVPSPKSFVYFIMRIVNFPKCRRRRLQKDIEMGMGNSKSRLNLFTQSNSRVFESHSFNSILNQPTRYQQIMKRLIKRYVLKAQVDKENDEVNEGELKEIKQDISSLRYELLEDKSQATEELAILIHKLSEKLNPSMLRCE
In the case of B1, the binding entry (with Flag-AT1R-cherry [3]; in assay [4]; in the assay with Flag-AT1R-cherry [5]; in [2]) was “binds” each time.

B2: phosphoinositide-specific phospholipase C (PLCγ1) (enzyme, UniProt P19174 1-1290)
chain: MAGAASPCANGCGPGAPSDAEVLHLCRSLEVGTVMTLFYSKKSQRPERKTFQVKLETRQITWSRGADKIEGAIDIREIKEIRPGKTSRDFDRYQEDPAFRPDQSHCFVILYGMEFRLKTLSLQATSEDEVNMWIKGLTWLMEDTLQAPTPLQIERWLRKQFYSVDRNREDRISAKDLKNMLSQVNYRVPNMRFLRERLTDLEQRSGDITYGQFAQLYRSLMYSAQKTMDLPFLEASTLRAGERPELCRVSLPEFQQFLLDYQGELWAVDRLQVQEFMLSFLRDPLREIEEPYFFLDEFVTFLFSKENSVWNSQLDAVCPDTMNNPLSHYWISSSHNTYLTGDQFSSESSLEAYARCLRMGCRCIELDCWDGPDGMPVIYHGHTLTTKIKFSDVLHTIKEHAFVASEYPVILSIEDHCSIAQQRNMAQYFKKVLGDTLLTKPVEISADGLPSPNQLKRKILIKHKKLAEGSAYEEVPTSMMYSENDISNSIKNGILYLEDPVNHEWYPHYFVLTSSKIYYSEETSSDQGNEDEEEPKEVSSSTELHSNEKWFHGKLGAGRDGRHIAERLLTEYCIETGAPDGSFLVRESETFVGDYTLSFWRNGKVQHCRIHSRQDAGTPKFFLTDNLVFDSLYDLITHYQQVPLRCNEFEMRLSEPVPQTNAHESKEWYHASLTRAQAEHMLMRVPRDGAFLVRKRNEPNSYAISFRAEGKIKHCRVQQEGQTVMLGNSEFDSLVDLISYYEKHPLYRKMKLRYPINEEALEKIGTAEPDYGALYEGRNPGFYVEANPMPTFKCAVKALFDYKAQREDELTFIKSAIIQNVEKQEGGWWRGDYGGKKQLWFPSNYVEEMVNPVALEPEREHLDENSPLGDLLRGVLDVPACQIAIRPEGKNNRLFVFSISMASVAHWSLDVAADSQEELQDWVKKIREVAQTADARLTEGKIMERRKKIALELSELVVYCRPVPFDEEKIGTERACYRDMSSFPETKAEKYVNKAKGKKFLQYNRLQLSRIYPKGQRLDSSNYDPLPMWICGSQLVALNFQTPDKPMQMNQALFMTGRHCGYVLQPSTMRDEAFDPFDKSSLRGLEPCAISIEVLGARHLPKNGRGIVCPFVEIEVAGAEYDSTKQKTEFVVDNGLNPVWPAKPFHFQISNPEFAFLRFVVYEEDMFSDQNFLAQATFPVKGLKTGYRAVPLKNNYSEDLELASLLIKIDIFPAKENGDLSPFSGTSLRERGSDASGQLFHGRAREGSFESRYQQPFEDFRISQEHLADHFDSRERRAPRRTRVNGDNRL
In the case of B2, the binding result (in the assay with Flag-AT1R-cherry [3]; in assay [4]; with TRPC3-GFP (wild type) [6]; in assay [2]; with HA-β-arrestin-1 P121A; with HA-β-arrestin-1 P180A) was “binds” each time.
